Source: article PMC9958362

How the values were obtained:
[1] = biological target: T1, XPC (endogenous, HEK293T) (human (endogenous in HEK293T)) (UniProt Q01831); assay: co-IP; HEK293T whole cell extract overexpressing GFP-MAP7 constructs or mCherry-MAP7D1 constructs, with the endogenous DDR protein; 2 h, 4 °C, 150 mM NaCl, 1% Triton X-100; in some panels cells treated with nocodazole (0.1 ng/mL), paclitaxel (0-10 μM), 10 Gy γ-irradiation or 10 J/m^2 UVC; western blot
T1 sequence: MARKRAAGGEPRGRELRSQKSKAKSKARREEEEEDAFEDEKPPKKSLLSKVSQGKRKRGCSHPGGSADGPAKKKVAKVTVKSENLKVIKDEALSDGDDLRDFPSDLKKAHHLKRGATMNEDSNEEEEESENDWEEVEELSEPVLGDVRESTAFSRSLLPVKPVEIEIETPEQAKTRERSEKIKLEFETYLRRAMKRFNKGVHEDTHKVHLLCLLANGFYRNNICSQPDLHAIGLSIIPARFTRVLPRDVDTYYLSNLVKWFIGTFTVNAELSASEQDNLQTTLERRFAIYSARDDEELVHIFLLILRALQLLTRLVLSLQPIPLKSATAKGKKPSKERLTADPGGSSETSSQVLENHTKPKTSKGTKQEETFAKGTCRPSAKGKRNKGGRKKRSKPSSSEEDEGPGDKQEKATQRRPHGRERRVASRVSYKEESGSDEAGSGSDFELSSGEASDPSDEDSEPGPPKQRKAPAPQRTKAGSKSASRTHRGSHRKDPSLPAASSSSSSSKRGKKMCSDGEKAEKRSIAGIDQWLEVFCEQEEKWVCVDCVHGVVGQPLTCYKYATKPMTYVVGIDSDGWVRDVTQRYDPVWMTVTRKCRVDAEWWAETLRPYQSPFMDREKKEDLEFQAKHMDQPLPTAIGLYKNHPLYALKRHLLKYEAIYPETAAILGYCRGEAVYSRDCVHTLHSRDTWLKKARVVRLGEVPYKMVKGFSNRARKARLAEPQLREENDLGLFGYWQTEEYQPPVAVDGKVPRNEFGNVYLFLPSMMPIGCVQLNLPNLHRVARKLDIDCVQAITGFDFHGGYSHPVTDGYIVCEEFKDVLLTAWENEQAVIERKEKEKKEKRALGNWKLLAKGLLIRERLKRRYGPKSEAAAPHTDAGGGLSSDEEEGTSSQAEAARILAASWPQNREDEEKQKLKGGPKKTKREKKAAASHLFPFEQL

[2] = biological target: T2, pRAD50 peptide (phosphorylated RAD50 peptide, pThr690); assay: pull-down; biotinylated RAD50 peptides (nonP and P); pull-down from HEK293T whole cell extract overexpressing GFP-MAP7; western blot; only the target purified
T2 sequence (peptide, Biotin-eahx on the N-terminus; phosphothreonine (pT, Thr690); C-terminal amide): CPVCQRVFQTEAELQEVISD

| binding [1] | binding [2] | Substance |
| --- | --- | --- |
| binds | – | GFP-tagged MAP7 N-terminal fragment (aa1-152) (domain or fragment) |
| binds | – | GFP-tagged MAP7 aa1-290 (domain or fragment) |
| no binding | – | GFP-tagged MAP7 aa290-730 (domain or fragment) |
| binds | binds | GFP-tagged full-length MAP7 |

These are yes or no findings as the source states them, for the method shown. Binding seen in cells or lysates may run through a third protein. A result given as binding can be weak or reduced; the word gives no strength.
